Paper PMC12604968, “Mutant NPM1 modulates PDCD4 ubiquitination degradation and facilitates leukemogenesis” (iScience, 2025)
Results are given in words; binding and its absence hold for the method and conditions named. In cells and extracts the contact can be indirect. These calls come from enrichment with a bait or labelling near it, and not all partners need be listed. Sequences can lack the tags named with a protein.

The chains behind the UniProt entries cited, without tags or fusion partners.
UniProt P06748: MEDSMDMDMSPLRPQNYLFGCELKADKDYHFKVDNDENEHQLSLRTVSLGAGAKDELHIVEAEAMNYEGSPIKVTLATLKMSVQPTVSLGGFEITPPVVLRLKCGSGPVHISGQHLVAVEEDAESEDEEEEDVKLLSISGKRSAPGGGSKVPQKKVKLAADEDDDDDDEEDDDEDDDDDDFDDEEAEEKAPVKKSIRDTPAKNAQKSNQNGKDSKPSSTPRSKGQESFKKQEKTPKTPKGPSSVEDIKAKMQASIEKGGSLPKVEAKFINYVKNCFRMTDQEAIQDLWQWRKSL
UniProt Q09028: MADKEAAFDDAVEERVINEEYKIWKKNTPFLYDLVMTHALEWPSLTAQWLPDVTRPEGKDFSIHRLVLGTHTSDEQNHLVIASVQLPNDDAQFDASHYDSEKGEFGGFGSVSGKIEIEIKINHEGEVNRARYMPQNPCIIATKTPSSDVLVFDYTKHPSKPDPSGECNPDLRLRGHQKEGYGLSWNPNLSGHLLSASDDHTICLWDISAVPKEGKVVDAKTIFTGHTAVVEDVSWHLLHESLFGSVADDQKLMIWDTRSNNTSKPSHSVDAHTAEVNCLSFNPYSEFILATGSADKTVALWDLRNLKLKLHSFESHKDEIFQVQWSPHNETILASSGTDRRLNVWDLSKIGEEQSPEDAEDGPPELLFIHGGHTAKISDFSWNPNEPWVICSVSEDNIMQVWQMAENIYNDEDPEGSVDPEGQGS

Target: T1, GST-PDCD4 recombinant protein (human, UniProt Q53EL6 1-469)
T1 construct: PDCD4 (programmed cell death 4), human, amplified from cDNA of HEK293T cells and cloned into pGEX-6P-1; pGEX-6P-1 is known to add GST at the N-terminus; also called GST-tagged PDCD4; source: E. coli BL21 (DE3), purified (Glutathione Sepharose 4FF)
T1 sequence (looked up): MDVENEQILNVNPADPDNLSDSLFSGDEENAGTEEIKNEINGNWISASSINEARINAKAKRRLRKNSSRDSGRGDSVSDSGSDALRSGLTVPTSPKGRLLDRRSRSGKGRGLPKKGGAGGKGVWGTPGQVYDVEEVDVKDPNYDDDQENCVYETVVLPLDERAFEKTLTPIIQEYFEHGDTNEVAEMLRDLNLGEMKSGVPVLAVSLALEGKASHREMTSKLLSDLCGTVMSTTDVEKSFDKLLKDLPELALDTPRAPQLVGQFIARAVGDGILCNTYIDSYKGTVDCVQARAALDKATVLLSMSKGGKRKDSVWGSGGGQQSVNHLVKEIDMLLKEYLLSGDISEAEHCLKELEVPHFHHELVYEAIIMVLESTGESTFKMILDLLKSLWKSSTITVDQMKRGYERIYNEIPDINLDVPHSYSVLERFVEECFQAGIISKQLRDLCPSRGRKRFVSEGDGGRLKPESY
Assay: affinity purification with mass spectrometry; GST-PDCD4 (and GST) immobilised on glutathione Sepharose beads, incubated with cell lysate; SDS-PAGE, mass spectrometry; only the target purified

| binding | Substance |
| --- | --- |
| binds | NPM1 (Nucleophosmin 1), endogenous (from UniProt P06748 1-294) |
| binds | RBBP4, endogenous (from UniProt Q09028 1-425) |
